# Among all 410,000 compounds or so, about 310 (0.076%) were called active. This list was built around the results that the source calls inconclusive (neither active nor inactive); the mix of calls is not that of the screen. Calls come from the whole dose curve; as a rule, active = well fitted activation curve with a large enough effect; inconclusive = small, poorly fitted or top-dose-only effect, or another doubt; inactive = no such curve, though single readings can be large or run the other way. Potencies of inconclusive entries are doubtful fits and often do not repeat.
# Protein sequences, listed by entry. Tags and fused reporters are not part of them. Lines headed by an entry give the natural chain unless they say otherwise; changes in a name come on top.
# UniProt Q03431: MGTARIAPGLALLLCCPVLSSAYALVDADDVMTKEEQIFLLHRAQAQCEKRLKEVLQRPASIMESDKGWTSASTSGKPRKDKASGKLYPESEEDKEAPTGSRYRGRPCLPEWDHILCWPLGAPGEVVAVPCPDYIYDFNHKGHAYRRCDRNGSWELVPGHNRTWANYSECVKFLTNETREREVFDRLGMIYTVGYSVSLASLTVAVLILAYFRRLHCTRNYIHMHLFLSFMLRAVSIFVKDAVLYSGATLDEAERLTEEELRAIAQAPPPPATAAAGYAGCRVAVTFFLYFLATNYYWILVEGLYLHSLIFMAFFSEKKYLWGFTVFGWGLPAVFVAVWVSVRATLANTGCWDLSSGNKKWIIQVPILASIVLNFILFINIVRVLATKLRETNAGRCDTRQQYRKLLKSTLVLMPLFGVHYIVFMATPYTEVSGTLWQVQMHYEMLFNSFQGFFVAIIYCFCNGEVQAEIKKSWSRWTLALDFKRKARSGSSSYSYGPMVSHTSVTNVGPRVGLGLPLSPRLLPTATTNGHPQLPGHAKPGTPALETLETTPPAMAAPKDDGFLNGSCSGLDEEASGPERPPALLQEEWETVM
# Target: Parathyroid hormone/parathyroid hormone-related peptide receptor (Homo sapiens) (UniProt Q03431)
# Experiment: qHTS for PTHR1 Agonists: Primary Screen; note: nearly all actives have a fitted effect of over 55% in size
# Conditions: HEK293 GP2 PTHR1 cells, GloSensor cAMP luminescence, 1 h; activation: at 115 µM (top of the series) unless noted; series mostly up to 115 µM
# Outline: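 HEK-293-derived GP2 cells expressing PTHR1 and a GloSensor cAMP reporter, 3,000/well, plated overnight, given luciferin plus IBMX (each 0.5 mM as added) for 1 h at 37 °C, then compound for 1 h at 37 °C. Luminescence was read after 15 min at room temperature.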
# Potency is the fitted concentration of half-maximal effect.
Structure (SMILES),Potency,outcome,activation
CCOc1ccccc1NC(=O)C(=O)NCCc1sc(-c2cccc(F)c2)nc1C,"inconclusive: 89.1 µM [activator, partial curve, poor fit]",,
O=C(CSc1nc2ccccc2s1)Nc1ccc(C(=O)O)cc1,"inconclusive: 35.5 µM [activator, single point]",,
COc1ccccc1CC(=O)N(Cc1ccccc1)c1ccc(C)cc1,,inactive,
NCCCCC(C(=O)O)N(C(=O)OCc1ccccc1)C(=O)OCc1ccccc1 (stereo unspecified),"inconclusive: 35.5 µM [activator, full curve, poor fit]",,
Cc1cccc(C)c1OCCn1c(C2CC(=O)N(c3cccc(Cl)c3)C2)nc2ccccc21 (stereo unspecified),,inactive,
O=C(Cn1cc(C(=O)c2ccco2)c2ccccc21)Nc1ccc(Br)cc1,"inconclusive: 141 µM [activator, single point]",,
COC(=O)c1cc2sccc2n1CC(=O)Nc1ccc(OC)c(OC)c1OC,"inconclusive: 35.5 µM [activator, single point]",,
Cc1cc(C)c2sc(N(CCCN(C)C)C(=O)c3ccc(Br)s3)nc2c1,,,inconclusive: 110% [activator]
Cc1cnc(C(=O)N(c2ccc(N3CCOCC3)cc2)C2C(=O)Nc3ccccc3N=C2c2ccc(F)cc2)cn1 (stereo unspecified),"inconclusive: 112 µM [activator, single point]",,
CC1CCCN(C(=O)CSc2nnc(-c3c[nH]c4ccccc34)o2)C1 (stereo unspecified),"inconclusive: 39.8 µM [activator, single point]",,
COc1ccc(C(F)(F)F)cc1NC(=O)c1sc2nc(-c3cccs3)ccc2c1N,"inconclusive: 89.1 µM [activator, partial curve, poor fit]",,
COC(=O)c1ccccc1NC(=O)c1ccc(COc2ccccc2Cl)o1,,inactive,
COc1cccc(CNC(=O)CCc2cn(Cc3ccccc3Cl)c3ccccc23)c1,,,inactive: -31.7%
CCOc1ccc(/C=N/NC(=O)c2cc3c(OC)cc(OC)c(OC)c3[nH]2)cc1,"inconclusive: 126 µM [activator, single point]",,
CCCNC(=S)Nc1cccc(C(F)(F)F)c1,,,inconclusive: 70.6% [activator]
COc1cc(NC(=O)c2ccc3c(SCC(=O)O)c4c(nc3c2)CCC4)cc(OC)c1OC,,,inconclusive: 82.8% [activator]
COc1ccc(S(=O)(=O)N(C)CC(=O)N2CCN(c3ccc(F)cc3)CC2)cc1OC,"inconclusive: 39.8 µM [activator, single point]",,
CN1Cc2c(N3CCOCC3)nc(SCc3ccccc3)c(C#N)c2CC1(C)C,"inconclusive: 56.2 µM [activator, single point]",,
CN1Cc2c(N3CCOCC3)nc3sc(C#N)c(N)c3c2CC1(C)C,,inactive,
Cc1ccccc1Cn1c(=O)n(Cc2ccc(Cl)cc2)c(=O)c2cccnc21,"inconclusive: 141 µM [activator, single point]",,
COc1cc(/C=C2/SC(=S)N(CCC(=O)Nc3ccccc3)C2=O)cc(OC)c1OC,,inactive,
Cn1c(CN2CCN(c3cccc(Cl)c3)CC2)nc2ccccc21,"inconclusive: 5.01 µM [activator, full curve, poor fit]",,

# Given with tabs: three of the compounds above.
Structure (SMILES)	Potency	outcome	activation
COc1ccc(S(=O)(=O)N(C)CC(=O)N2CCN(c3ccc(F)cc3)CC2)cc1OC	inconclusive: 39.8 µM [activator, single point]		
CN1Cc2c(N3CCOCC3)nc(SCc3ccccc3)c(C#N)c2CC1(C)C	inconclusive: 56.2 µM [activator, single point]		
CN1Cc2c(N3CCOCC3)nc3sc(C#N)c(N)c3c2CC1(C)C		inactive	

# Some of the entries above, set out differently:
Structure (SMILES)	Potency	outcome	activation
CCOc1ccc(/C=N/NC(=O)c2cc3c(OC)cc(OC)c(OC)c3[nH]2)cc1	inconclusive: 126 µM [activator, single point]		
CCCNC(=S)Nc1cccc(C(F)(F)F)c1			inconclusive: 70.6% [activator]

# Later entries:

Structure (SMILES),Potency,outcome,activation
Cc1ccc(S(=O)(=O)N2CCN(C(=O)CSc3ncc(C(F)(F)F)cc3Cl)CC2)cc1,,,inactive: -17.7% [at 57.5 µM]
CCOc1ccc(NC(=O)CCC(=O)c2ccc(-c3ccccc3)cc2)cc1,,,inconclusive: 45.2% [activator]
Cc1cc2oc(C(=O)N(Cc3ccccc3)C3CCS(=O)(=O)C3)cc(=O)c2cc1Cl (stereo unspecified),,,inconclusive: 34.5% [activator] [at 57.5 µM]
CCCN1CCN(c2ncnc3scc(C4COc5ccccc5O4)c23)CC1 (stereo unspecified),"inconclusive: 28.2 µM [activator, partial curve, poor fit]",,
C=CCn1c(CCc2ccccc2)nnc1SCC(=O)OC,"inconclusive: 35.5 µM [activator, partial curve]",,
Cc1c(Cl)cccc1NC(=O)Cn1nc(C)c2sc3ccccc3c2c1=O,"inconclusive: 89.1 µM [activator, partial curve, poor fit]",,
Cc1ccc(C)c(S(=O)(=O)c2nnn3c2nc(Nc2ccc(F)c(Cl)c2)c2sccc23)c1,,,inactive: -29.7%
Cc1ccccc1C(=O)Nc1cc(S(=O)(=O)N2CCCCC2)ccc1N1CCN(C)CC1,"inconclusive: 8.91 µM [activator, partial curve, poor fit]",,
Cc1ccc(S(=O)(=O)N2CCC(C(=O)NCc3cccnc3)CC2)cc1,"inconclusive: 44.7 µM [activator, single point]",,
CCC(C(=O)N1CCOCC1)n1c(C(=O)OC)cc2occc21 (stereo unspecified),"inconclusive: 39.8 µM [activator, single point]",,
O=C(COc1ccc([N+](=O)[O-])cc1Cl)N1CCc2ccccc21,,,inconclusive: -83.1% [activator]
CCOC(=O)C1=NNC(C(=O)OCC)C1c1ccccc1 (stereo unspecified),,,inconclusive: 30.4% [activator]
COC(=O)COc1ccc(-n2cnnn2)cc1,"inconclusive: 79.4 µM [activator, partial curve, poor fit]",,
CCc1ccc(N2CC(C(=O)N/N=C/c3cc([N+](=O)[O-])ccc3O)CC2=O)cc1 (stereo unspecified),,,inconclusive: 30.4% [activator]
CNC[C@H](O)c1ccc(O)c(O)c1,"inconclusive: 7.94 µM [activator, partial curve, poor fit]",,
COc1ccc([N+](=O)[O-])cc1N(CC(O)Cn1nnc2ccccc21)S(=O)(=O)c1ccc(C)cc1 (stereo unspecified),,,inconclusive: 30.3% [activator]
CC(C)(C)OC(=O)N1CCC(C(=O)N2CCOCC2)CC1,"inconclusive: 6.31 µM [activator, partial curve, poor fit]",,
Cc1ccccc1-n1nc2c(c1NC(=O)C1CC1)CS(=O)(=O)C2,,,inactive: -20.6%
O=S(=O)(Nn1cnnc1)c1ccccc1,"inconclusive: 39.8 µM [activator, single point]",,
O=C(Cn1cc([N+](=O)[O-])cn1)NCc1ccco1,"inconclusive: 126 µM [activator, single point]",,
Cn1c(N)c(C(=O)COC(=O)COc2ccc(C#N)cc2)c(=O)n(C)c1=O,"inconclusive: 112 µM [activator, single point]",,
Cc1cc(NC(=O)Nc2csc3c2CCCC3)ccc1Br,,,inconclusive: -97.7% [activator]

Structure (SMILES),Potency,outcome,activation
O=C(NCCCO)C(=O)NCc1ccncc1,"inconclusive: 5.01 µM [activator, partial curve]",,
O=C(CCn1cccn1)Nc1ccc(-c2ccno2)cc1,,inactive,
C[C@@H]1CN([C@@H](C)CO)C(=O)c2cc(NC(=O)Nc3ccc(F)cc3)ccc2O[C@@H]1CN(C)Cc1ccc(Oc2ccccc2)cc1,"inconclusive: 141 µM [activator, single point]",,
Cc1cccc(OCC(=O)NCCCNC(=O)c2cnccn2)c1,,,inconclusive: 42.7% [activator]
Cc1ncc(CO)c2c1Oc1nc(-c3ccccc3)nc(SCC(=O)Nc3cccc(C(F)(F)F)c3)c1C2,"inconclusive: 100 µM [activator, single point]",,
O=C(Cc1ccccc1)Nc1cccc(-c2nc3cccnc3s2)c1,"inconclusive: 44.7 µM [activator, partial curve, poor fit]",,
Cc1ccc(CN2CCNC(=O)C2CC(=O)NCCCn2ncc3ccccc32)o1 (stereo unspecified),,,inconclusive: 49.7% [activator]
Nc1ccc(-c2nc3cc([N+](=O)[O-])ccc3o2)cc1,,,inconclusive: -45.8% [activator]
C#CCOCCOCCOCCNc1nc(N2CCN(C(=O)CCCCCCCCCCNC(=O)[C@H](CO)n3cc(CCCSC)nn3)CC2)nc(N2CCN(C(=O)CCCCCCCCCCNC(=O)[C@H](CCCCN)n3cc(CCO)nn3)CC2)n1,"inconclusive: 112 µM [activator, partial curve, poor fit]",,
COc1ccc(CNC(=O)C2CCN(c3nccs3)CC2)cc1,"inconclusive: 2.24 µM [activator, partial curve, poor fit]",,
COCCNC(=O)c1ccccc1NC(=O)CN(c1ccc2c(c1)OCO2)S(C)(=O)=O,"inconclusive: 39.8 µM [activator, single point]",,
O=C(CN(Cc1ccccc1Cl)C(=O)c1csnn1)NCc1ccc2c(c1)OCO2,,,inconclusive: -20.3% [activator]
Cc1ccc(C(C)C)c(OCc2nnc(SCC(=O)Nc3ncc(C)s3)n2C)c1,,,inconclusive: -38.3% [activator] [at 57.5 µM]
CCN1CCN(C(c2ccccc2)c2c(O)cc(C)n(CCOC)c2=O)CC1 (stereo unspecified),"inconclusive: 141 µM [activator, single point]",,
COc1ccc2nc(N3CCN(C(=O)c4ccco4)CC3)sc2c1,,,inactive: -28.3%
COCCNC(=O)C1CC(c2ccc(F)cc2)=NO1 (stereo unspecified),"inconclusive: 44.7 µM [activator, single point]",,
COc1ccc(C2CCc3cc4c(cc3C2=NO)OCO4)cc1OC (stereo unspecified),,,inactive: -0.916%
O=C(Nc1ccccc1F)c1ccc(-c2cccc([N+](=O)[O-])c2)o1,,,inconclusive: 30.7% [activator]
O=c1c(Cl)c(Nc2cccc(Cl)c2)cnn1-c1nc2ccccc2s1,,,inactive: -9.36%
Cc1nn(-c2ccccc2)c(N2CCCC2)c1/C=N/NC(=S)Nc1cc(C(F)(F)F)ccc1Cl,,inactive,
CCOC(=O)N1CCN(C(=O)C2CCCN(S(=O)(=O)c3ccccc3)C2)CC1 (stereo unspecified),"inconclusive: 50.1 µM [activator, single point]",,
COc1ccc(NC(C)=O)cc1NC(=O)c1ccc(C#N)cc1,"inconclusive: 14.1 µM [activator, partial curve]",,
